One molecule from paper PMC12591158 can be followed below.

Protein sequences, listed by entry. Tags and fused reporters are not part of them.
UniProt Q9Y572: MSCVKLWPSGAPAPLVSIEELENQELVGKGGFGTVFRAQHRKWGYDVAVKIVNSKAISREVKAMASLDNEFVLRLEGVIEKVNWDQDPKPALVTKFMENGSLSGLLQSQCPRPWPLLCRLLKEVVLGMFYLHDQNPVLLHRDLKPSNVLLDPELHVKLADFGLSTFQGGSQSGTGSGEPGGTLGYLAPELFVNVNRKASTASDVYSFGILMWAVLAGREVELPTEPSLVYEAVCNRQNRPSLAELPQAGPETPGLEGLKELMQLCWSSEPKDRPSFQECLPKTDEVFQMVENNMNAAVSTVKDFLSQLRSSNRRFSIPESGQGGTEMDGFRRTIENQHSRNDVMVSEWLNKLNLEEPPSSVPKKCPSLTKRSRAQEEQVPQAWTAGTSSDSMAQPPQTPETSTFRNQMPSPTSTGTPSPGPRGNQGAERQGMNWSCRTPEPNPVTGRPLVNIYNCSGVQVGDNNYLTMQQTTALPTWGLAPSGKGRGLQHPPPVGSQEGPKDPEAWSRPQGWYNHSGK

The target in this assay is HA-RIPK3 overexpressed in Beas-2B-ZBP1-EF3-AT cells (UniProt Q9Y572). Briefly: co-IP.

These are yes or no findings as the source states them, for the method shown. In cells and extracts the contact can be indirect. Some entries that bind do so weakly or less than the wild type.

B1: ZBP1 constitutively expressed in Beas-2B-ZBP1-EF3-AT cells (protein, UniProt Q9H171 1-429)
chain: MAQAPADPGREGHLEQRILQVLTEAGSPVKLAQLVKECQAPKRELNQVLYRMKKELKVSLTSPATWCLGGTDPEGEGPAELALSSPAERPQQHAATIPETPGPQFSQQREEDIYRFLKDNGPQRALVIAQALGMRTAKDVNRDLYRMKSRHLLDMDEQSKAWTIYRPEDSGRRAKSASIIYQHNPINMICQNGPNSWISIANSEAIQIGHGNIITRQTVSREDGSAGPRHLPSMAPGDSSTWGTLVDPWGPQDIHMEQSILRRVQLGHSNEMRLHGVPSEGPAHIPPGSPPVSATAAGPEASFEARIPSPGTHPEGEAAQRIHMKSCFLEDATIGNSNKMSISPGVAGPGGVAGSGEGEPGEDAGRRPADTQSRSHFPRDIGQPITPSHSKLTPKLETMTLGNRSHKAAEGSHYVDEASHEGSWWGGGI
For B1, the binding entry was “binds”.
